Experiment [1] deals with T1, GST-ORF6-C, purified (SARS-CoV-2) (UniProt P0DTC6).
T1 sequence: SLTENKYSQLDEEQPMEID
Put plainly: pull-down; GST pull-down: 1 µg GST-tagged protein with 1 µg His-tagged caspase-8-C/A in 250 µL NP-40 lysis buffer, 4 h at 4 °C, Glutathione Resin overnight; washes with 1% NP-40, 500 mM NaCl, 50 mM HEPES pH 7.5; both purified.

By UniProt entry, the sequences of proteins in these tests, tags left out. Where a name states a change or a piece, a line headed by the entry shows the natural chain unless it says otherwise. Chains listed by the source or under a name are the forms on record and can include a tag or linker. Residues count along the entry.
UniProt P0DTC6: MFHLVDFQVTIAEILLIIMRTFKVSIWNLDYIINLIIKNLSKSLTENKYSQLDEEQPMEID
UniProt Q9Y572: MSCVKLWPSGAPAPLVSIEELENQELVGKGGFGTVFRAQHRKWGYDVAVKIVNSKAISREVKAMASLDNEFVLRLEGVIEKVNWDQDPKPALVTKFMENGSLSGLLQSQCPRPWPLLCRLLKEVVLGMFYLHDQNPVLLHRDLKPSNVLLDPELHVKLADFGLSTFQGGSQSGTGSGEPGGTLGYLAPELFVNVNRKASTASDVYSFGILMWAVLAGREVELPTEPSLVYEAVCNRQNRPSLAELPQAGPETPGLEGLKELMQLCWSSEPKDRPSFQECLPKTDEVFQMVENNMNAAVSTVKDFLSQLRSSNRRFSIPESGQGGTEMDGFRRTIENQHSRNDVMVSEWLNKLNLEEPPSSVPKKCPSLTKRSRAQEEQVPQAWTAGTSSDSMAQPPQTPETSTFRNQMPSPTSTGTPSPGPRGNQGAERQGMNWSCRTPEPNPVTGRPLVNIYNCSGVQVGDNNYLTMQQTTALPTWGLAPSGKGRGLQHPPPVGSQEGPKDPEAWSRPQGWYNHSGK
UniProt Q14790: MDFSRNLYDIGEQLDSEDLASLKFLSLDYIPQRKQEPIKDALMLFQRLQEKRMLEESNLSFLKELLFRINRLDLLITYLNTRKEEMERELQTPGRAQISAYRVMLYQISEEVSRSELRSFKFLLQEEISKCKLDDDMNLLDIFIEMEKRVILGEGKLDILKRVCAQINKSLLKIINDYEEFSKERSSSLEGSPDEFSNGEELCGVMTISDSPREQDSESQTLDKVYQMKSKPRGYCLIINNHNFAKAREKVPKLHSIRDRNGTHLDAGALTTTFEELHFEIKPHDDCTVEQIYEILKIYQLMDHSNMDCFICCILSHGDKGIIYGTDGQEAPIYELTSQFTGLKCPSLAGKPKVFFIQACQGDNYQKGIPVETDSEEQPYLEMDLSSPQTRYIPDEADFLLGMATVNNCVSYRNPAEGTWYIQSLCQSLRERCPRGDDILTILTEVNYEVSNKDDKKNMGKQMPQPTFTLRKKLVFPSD
His-tagged caspase-8-C/A, purified (Q14790, form named): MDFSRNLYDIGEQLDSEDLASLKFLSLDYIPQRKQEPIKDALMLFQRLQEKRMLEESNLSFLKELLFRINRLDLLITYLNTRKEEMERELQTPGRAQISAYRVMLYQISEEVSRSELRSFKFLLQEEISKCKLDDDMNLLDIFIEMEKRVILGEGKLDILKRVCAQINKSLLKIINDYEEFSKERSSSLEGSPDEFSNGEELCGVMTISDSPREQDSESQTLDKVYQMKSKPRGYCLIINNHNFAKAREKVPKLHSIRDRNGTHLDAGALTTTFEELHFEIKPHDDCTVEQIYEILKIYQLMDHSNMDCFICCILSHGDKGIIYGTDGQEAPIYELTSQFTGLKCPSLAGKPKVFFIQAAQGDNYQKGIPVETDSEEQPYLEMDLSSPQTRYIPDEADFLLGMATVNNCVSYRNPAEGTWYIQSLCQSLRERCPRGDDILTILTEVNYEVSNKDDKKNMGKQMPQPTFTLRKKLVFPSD
UniProt P0C6X6, residues 5298-5900: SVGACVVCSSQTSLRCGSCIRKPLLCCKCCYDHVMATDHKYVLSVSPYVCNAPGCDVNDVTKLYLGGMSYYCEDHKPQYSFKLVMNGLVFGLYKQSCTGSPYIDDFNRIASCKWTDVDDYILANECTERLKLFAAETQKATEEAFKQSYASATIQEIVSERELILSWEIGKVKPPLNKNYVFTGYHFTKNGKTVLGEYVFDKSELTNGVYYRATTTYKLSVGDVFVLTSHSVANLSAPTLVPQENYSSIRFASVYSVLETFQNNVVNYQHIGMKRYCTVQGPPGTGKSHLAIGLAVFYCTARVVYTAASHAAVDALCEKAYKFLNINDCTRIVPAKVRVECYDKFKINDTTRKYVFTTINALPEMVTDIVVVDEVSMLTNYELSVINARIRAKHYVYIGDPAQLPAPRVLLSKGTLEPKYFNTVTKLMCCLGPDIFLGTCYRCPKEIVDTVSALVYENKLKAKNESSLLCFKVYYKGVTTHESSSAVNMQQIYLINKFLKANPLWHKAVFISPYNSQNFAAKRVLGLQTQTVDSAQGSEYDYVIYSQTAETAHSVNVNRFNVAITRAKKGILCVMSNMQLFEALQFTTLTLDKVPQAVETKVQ

Experiment [2] has as its target RIPK3 in HT29-ZBP1 inducible cell lines (human (endogenous in HT29)) (UniProt Q9Y572). Kind of experiment: co-IP; HT29-ZBP1 inducible stable cell lines with or without inducible NSP13 (SARS2, OC43 or SARS2-delRHIM), 500 ng/mL Dox plus zVAD for 20 h; Flag IP, RIPK3 IP or ZBP1 IP; NP-40 lysis buffer.

These are yes or no findings as the source states them, for the method shown. For some assays here: Binding seen in cells or lysates may run through a third protein. Some results given as binding are weak or reduced against the parent protein; the word gives no strength. For some assays here: Tags and fused reporters may be left off the sequences shown.

As to “His-tagged caspase-8-C/A, purified (from UniProt Q14790 1-479) (enzyme)”, the binding entry in experiment [1] is reported as “binds”.

Consider “NSP13 from hCoV-OC43, Dox-inducible in HT29-ZBP1-OC43-NSP13 cells (from UniProt P0C6X6 5298-5900) (enzyme)”, for which the binding result in experiment [2] is reported as “binds”.

The values are drawn from publication PMC12591158.
